Measurements from patent publication US20240400618A1 (GRIFOLS DIAGNOSTIC SOLUTIONS, published 2024).

Assays:
[1] = molecular target: pxENB9-FLS-CT-His (SARS-CoV-2, UniProt P0DTC2 15-1213)
[2] = molecular target: T1, pxENB17-RBD-His (SARS-CoV-2, UniProt P0DTC2 319-541)
[3] = molecular target: T1, pxENB17-RBD-His; test: BLI (Octet), ACE2 construct loaded on SA tips by its tag, RBD as analyte

B1: pxEBNCP21_hACE2-3A-mIgG1(h23)TST (Fc fusion)
chain: QSTIEEQAKTFLDKFNHEAEDLFYQSSLASWNYNTNITEENVQNMNNAGDKWSAFLKEQSTLAQMYPLQEIQNLTVKLQLQALQQNGSSVLSEDKSKRLNTILNTMSTIYSTGKVCNPDAPAECLLLEPGLNEIMANSLDYNERLWAWESWRSEVGKALRPLYEEYVVLKNEMARANHYEDYGDYWRGDYEVNGVDGYDYSRGQLIEDVEHTFEEIKPLYEHLHAYVRAKLMNAYPSYISPIGCLPAHLLGDMWGRFWTNLYSLTVPFGQKPNIDVTDAMVDQAWDAQRIFKEAEKFFVSVGLPNMTQGFWENSMLTDPGNVQKAVCHPTAWDLGKGDFRILMCTKVTMDDFLTAHHEMGHIQYDMAYAAQPFLLRNGANEGFHEAVGEIMSLSAATPKHLKSIGLLSPDFQEDNETEINFLLKQALTIVGTLPFTYMLEKWRWMVFKGEIPKDQWMKKWWEMKREIVGVVEPVPHDETYCDPASLFHVSNDYSFIRYYTRTLYQFQFQEALCQAAKHEGPLHKCDISNSTEAGQKLFNMLRLGKSEPWTLALENVVGAKNMNVRPLLNYFEPLFTWLKDQNKNSFVGWSTDWSPYADVPRDCGCKPCICTVPEVSSVFIFPPKPKDVLTITLTPKVTCVVVDISKDDPEVQFSWFVDDVEVHTAQTQPREEQFNSTFRSVSELPIMHQDWLNGKEFKCRVNSAAFPAPIEKTISKTKGRPKAPQVYTIPPPKEQMAKDKVSLTCMITDFFPEDITVEWQWNGQPAENYKNTQPIMNTNGSYFVYSKLNVQKSNWEAGNTFTCSVLHEGLHNHHTEKSLSHSPGKGGSGWSHPQFEKGGGSGGGSGGSAWSHPQFEK
- Kd [1]: 100 nM
- Kd [2]: 56.5 nM
- Response, shift in Wavelength (nm) [3]: 0.0063 nm
